Reference: PMC3029307
Results are given in words; binding and its absence hold for the method and conditions named. Some binding calls cover weakened binding; strength is not graded here.

Columns and labels:
Conditions in all cases: remark: other sources report otherwise
[1] = biological target: T1, Apaf-1 (endogenous, GM701 cytosol) (human (endogenous in GM701)), O14727; assay: SEC; fresh GM701 cytosol incubated with bovine CC, fractionated on Superose 6 (20 mM HEPES, 0.1% CHAPS, 5 mM DTT, 5% sucrose pH 7.0, 50 mM NaCl); fractions analysed by Western blotting
T1 chain: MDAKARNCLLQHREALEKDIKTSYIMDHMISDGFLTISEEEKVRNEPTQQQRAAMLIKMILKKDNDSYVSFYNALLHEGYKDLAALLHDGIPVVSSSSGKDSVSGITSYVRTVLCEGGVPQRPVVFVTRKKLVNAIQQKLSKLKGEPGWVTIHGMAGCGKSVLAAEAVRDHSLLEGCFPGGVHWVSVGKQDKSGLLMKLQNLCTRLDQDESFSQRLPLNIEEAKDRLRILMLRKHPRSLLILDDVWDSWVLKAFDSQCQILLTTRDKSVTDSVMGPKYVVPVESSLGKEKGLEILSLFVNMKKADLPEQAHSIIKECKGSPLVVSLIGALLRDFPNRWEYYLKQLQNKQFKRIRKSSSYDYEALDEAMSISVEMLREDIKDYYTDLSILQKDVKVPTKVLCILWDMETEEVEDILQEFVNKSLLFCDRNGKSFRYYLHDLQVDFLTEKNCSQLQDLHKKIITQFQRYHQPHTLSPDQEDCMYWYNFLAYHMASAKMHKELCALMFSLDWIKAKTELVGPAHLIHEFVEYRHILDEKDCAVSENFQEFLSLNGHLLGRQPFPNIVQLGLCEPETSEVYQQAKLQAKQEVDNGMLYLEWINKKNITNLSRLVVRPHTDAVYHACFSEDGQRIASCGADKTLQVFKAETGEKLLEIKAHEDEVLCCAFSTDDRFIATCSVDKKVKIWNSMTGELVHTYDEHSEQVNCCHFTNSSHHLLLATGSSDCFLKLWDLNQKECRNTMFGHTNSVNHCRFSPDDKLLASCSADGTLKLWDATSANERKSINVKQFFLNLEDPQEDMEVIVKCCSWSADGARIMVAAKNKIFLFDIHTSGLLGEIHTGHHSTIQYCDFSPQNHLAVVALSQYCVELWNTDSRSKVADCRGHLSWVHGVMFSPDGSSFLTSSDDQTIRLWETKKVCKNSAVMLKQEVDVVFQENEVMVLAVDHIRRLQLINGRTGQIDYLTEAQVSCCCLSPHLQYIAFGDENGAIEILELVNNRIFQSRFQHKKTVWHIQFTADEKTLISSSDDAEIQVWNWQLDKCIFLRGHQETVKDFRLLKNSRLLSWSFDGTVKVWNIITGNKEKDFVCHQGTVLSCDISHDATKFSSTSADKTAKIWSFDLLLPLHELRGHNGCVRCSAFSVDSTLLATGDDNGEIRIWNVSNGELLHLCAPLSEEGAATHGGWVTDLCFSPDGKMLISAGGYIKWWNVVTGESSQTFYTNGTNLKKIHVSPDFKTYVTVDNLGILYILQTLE

[2] = biological target: T1, Apaf-1 (endogenous, GM701 cytosol) …; assay: SEC; GM701 cytosol stored at -20°C for 15 days, incubated with CC with or without dATP, fractionated on Superose 6; fractions analysed by Western blotting
[3] = biological target: T1, Apaf-1 (endogenous, GM701 cytosol) …; assay: SEC; data not shown: gel filtration of cytosols stored at 4°C, with CC or CC/dATP
[4] = biological target: T1, Apaf-1 (endogenous, GM701 cytosol) …; assay: SEC; data not shown: gel filtration of cytosols stored at -80°C for 3 months, with CC with or without dATP

Measured: binding

B1: Apaf-1 (endogenous, GM701 cytosol), O14727 1-1248 (protein)
chain: MDAKARNCLLQHREALEKDIKTSYIMDHMISDGFLTISEEEKVRNEPTQQQRAAMLIKMILKKDNDSYVSFYNALLHEGYKDLAALLHDGIPVVSSSSGKDSVSGITSYVRTVLCEGGVPQRPVVFVTRKKLVNAIQQKLSKLKGEPGWVTIHGMAGCGKSVLAAEAVRDHSLLEGCFPGGVHWVSVGKQDKSGLLMKLQNLCTRLDQDESFSQRLPLNIEEAKDRLRILMLRKHPRSLLILDDVWDSWVLKAFDSQCQILLTTRDKSVTDSVMGPKYVVPVESSLGKEKGLEILSLFVNMKKADLPEQAHSIIKECKGSPLVVSLIGALLRDFPNRWEYYLKQLQNKQFKRIRKSSSYDYEALDEAMSISVEMLREDIKDYYTDLSILQKDVKVPTKVLCILWDMETEEVEDILQEFVNKSLLFCDRNGKSFRYYLHDLQVDFLTEKNCSQLQDLHKKIITQFQRYHQPHTLSPDQEDCMYWYNFLAYHMASAKMHKELCALMFSLDWIKAKTELVGPAHLIHEFVEYRHILDEKDCAVSENFQEFLSLNGHLLGRQPFPNIVQLGLCEPETSEVYQQAKLQAKQEVDNGMLYLEWINKKNITNLSRLVVRPHTDAVYHACFSEDGQRIASCGADKTLQVFKAETGEKLLEIKAHEDEVLCCAFSTDDRFIATCSVDKKVKIWNSMTGELVHTYDEHSEQVNCCHFTNSSHHLLLATGSSDCFLKLWDLNQKECRNTMFGHTNSVNHCRFSPDDKLLASCSADGTLKLWDATSANERKSINVKQFFLNLEDPQEDMEVIVKCCSWSADGARIMVAAKNKIFLFDIHTSGLLGEIHTGHHSTIQYCDFSPQNHLAVVALSQYCVELWNTDSRSKVADCRGHLSWVHGVMFSPDGSSFLTSSDDQTIRLWETKKVCKNSAVMLKQEVDVVFQENEVMVLAVDHIRRLQLINGRTGQIDYLTEAQVSCCCLSPHLQYIAFGDENGAIEILELVNNRIFQSRFQHKKTVWHIQFTADEKTLISSSDDAEIQVWNWQLDKCIFLRGHQETVKDFRLLKNSRLLSWSFDGTVKVWNIITGNKEKDFVCHQGTVLSCDISHDATKFSSTSADKTAKIWSFDLLLPLHELRGHNGCVRCSAFSVDSTLLATGDDNGEIRIWNVSNGELLHLCAPLSEEGAATHGGWVTDLCFSPDGKMLISAGGYIKWWNVVTGESSQTFYTNGTNLKKIHVSPDFKTYVTVDNLGILYILQTLE
binds: [1] | [2] | [3] | [4]
